According to PubChem BioAssay AID256 (DTP/NCI, 2004):
The list is a part of this screen's results and no random one: its compounds were picked by chemical class. Other doses and runs of a compound may be missing. T/C is the treated group as % of the vehicle group. For survival time, the PubChem record calls one and a half times the control and up active, and a quarter to a half above the control has no call in these data; cut-offs in other NCI protocols can differ. Some entries show no survivor count and are marked so; the dose need not have been tolerated. Some complexes appear as separate parts, the way the source draws them; their charges need not add up. Schedule codes are those of the source, read here as Q, the interval in days (D) or hours (H), X, the number of doses. Some entries hold several experiments; their values stand side by side, smallest first.

Tested on: CD2F1 mice, L1210 leukemia ip, survival T/C
Assay: NCI In Vivo Anticancer Drug Screen. Data for tumor model L1210 Leukemia (intraperitoneal) in CD2F1 (CDF1) mice
Details: T/C endpoint: mean survival time, higher T/C = longer survival
Experimental: The antitumor activity of compounds was measured in mice bearing transplantable tumors. Survival or tumor size were measured and the results are expressed as the measurement made in the treated group (T) divided by the measurement made in the vehicle treated control group (C). The tumor model used in this assay is L1210 Leukemia (intraperitoneal) in CD2F1 (CDF1) mice

[1] = dose: 6.25 mg/kg/injection, schedule: Q04DX003 (ip), vehicle: water
[2] = dose: 12.5 mg/kg/injection, schedule: Q04DX003 (ip), vehicle: water
[3] = dose: 25.0 mg/kg/injection, schedule: Q04DX003 (ip), vehicle: water
[4] = dose: 50.0 mg/kg/injection, schedule: Q04DX003 (ip), vehicle: water

Row | SMILES | T/C (dose: 3.13 mg/kg/injection, schedule: Q01DX009 (ip), vehicle: saline) | T/C (dose: 6.25 mg/kg/injection, schedule: Q01DX009 (ip), vehicle: saline) | T/C [1] | T/C (dose: 12.5 mg/kg/injection, schedule: Q01DX009 (ip), vehicle: saline) | T/C [2] | T/C (dose: 22.0 mg/kg/injection, schedule: Q04DX003 (ip), vehicle: water) | T/C (dose: 25.0 mg/kg/injection, schedule: Q01DX009 (ip), vehicle: saline) | T/C [3] | T/C (dose: 33.0 mg/kg/injection, schedule: Q04DX003 (ip), vehicle: water) | T/C [4] | T/C (dose: 3.13 mg/kg/injection, schedule: Q01DX009 (ip), vehicle: water) | T/C (dose: 6.25 mg/kg/injection, schedule: Q01DX009 (ip), vehicle: water) | T/C (dose: 12.5 mg/kg/injection, schedule: Q01DX009 (ip), vehicle: water) | T/C (dose: 25.0 mg/kg/injection, schedule: Q01DX009 (ip), vehicle: water)
1 | CN(CCCl)CCCl.O.O.O.[Cl][Ni+][Cl] | 91 % of control [survivor count not shown] | 96 % of control [survivor count not shown] | 95 % of control [survivor count not shown] | 104 % of control [survivor count not shown] | 97 % of control [survivor count not shown] | 111 % of control [survivor count not shown] | 112 % of control [survivor count not shown] | 109 % of control [survivor count not shown] | 120 % of control [survivor count not shown] | 120 [survivor count not shown], 127 [survivor count not shown], 138 % of control [survivor count not shown] |  |  |  | 
2 | CN(CCCl)CCCl.CN(CCCl)CCCl.[Cl][Pt+2][Cl] |  |  | 106 % of control [survivor count not shown] |  | 106 % of control [survivor count not shown] |  |  | 128 % of control [survivor count not shown] |  | 128 [survivor count not shown] and 139 % of control [survivor count not shown] | 117 % of control [survivor count not shown] | 124 % of control [survivor count not shown] | 130 % of control [survivor count not shown] | 130 % of control [survivor count not shown]
